PubChem BioAssay AID743121 | NCATS | 2013
Aim: 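Knock-downs that sensitise breast cancer cells to camptothecin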 (primary screen). System: MDA-MB-231 cells, a human breast cancer line. Reagent: single siRNA against human genes, 20 nM siRNA (0.8 pmol per well). Duration: 120 h (drug added 48 h after transfection, read 72 h later). Challenge: camptothecin 20 nM (about EC30) for 72 h; vehicle 0.1% DMSO in parallel plates. Detection: 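CellTiter-Glo ATP signal, scaled to control siRNA as percent viability; sensitisation given as log2 of untreated divided by camptothecin-treated viability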. Scale: log2 vehicle/camptothecin viability: higher = stronger sensitisation to camptothecin; viability with camptothecin: higher = more viable cells. Units: viability with camptothecin in % of control. Rule for the call: 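Active genes have an RSA gene-level p-value below 0.001, computed from the ratios of their separate siRNAs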.
This is a random part of about 26,000 reagents tested. Of all reagents, 167 (0.63%) are marked active. 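Calls are per gene from RSA p-values that are not deposited; an individual active-marked siRNA can sensitise only weakly.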 Entries without a mark were called inactive. The numbers tell different reagents against one gene apart. Not all columns of the deposit are shown.

ASIC3 (acid sensing ion channel subunit 3) #1 scored log2 vehicle/camptothecin viability -0.315; viability with camptothecin 76.2.
Silencing of ASIC3 (acid sensing ion channel subunit 3) #2 gave: log2 vehicle/camptothecin viability -0.169; viability with camptothecin 94.
ASIC3 (acid sensing ion channel subunit 3) #3 gave log2 vehicle/camptothecin viability 0.134; viability with camptothecin 63.5.
ASIC3 (acid sensing ion channel subunit 3) #4 gave log2 vehicle/camptothecin viability -0.592; viability with camptothecin 46.7.
For PRMT9 (protein arginine methyltransferase 9) #1, the entry reads log2 vehicle/camptothecin viability -0.0338; viability with camptothecin 106.
For PRMT9 (protein arginine methyltransferase 9) #2 the deposit lists log2 vehicle/camptothecin viability -0.141; viability with camptothecin 37.8.
Against PRMT9 (protein arginine methyltransferase 9) #3 the deposit lists log2 vehicle/camptothecin viability -0.33; viability with camptothecin 72.9.
For PRMT9 (protein arginine methyltransferase 9) #4 the deposit lists log2 vehicle/camptothecin viability -0.215; viability with camptothecin 114.

Entries listed so far whose target name starts with P or p (4):
PRMT9 (protein arginine methyltransferase 9) #1 | log2 vehicle/camptothecin viability = -0.0338; viability with camptothecin = 106
PRMT9 (protein arginine methyltransferase 9) #2 | log2 vehicle/camptothecin viability = -0.141; viability with camptothecin = 37.8
PRMT9 (protein arginine methyltransferase 9) #3 | log2 vehicle/camptothecin viability = -0.33; viability with camptothecin = 72.9
PRMT9 (protein arginine methyltransferase 9) #4 | log2 vehicle/camptothecin viability = -0.215; viability with camptothecin = 114

The results go on.
ADAM11 (ADAM metallopeptidase domain 11) #1 gave log2 vehicle/camptothecin viability 0.047; viability with camptothecin 83.3.
Depletion of ADAM11 (ADAM metallopeptidase domain 11) #2 came out at: log2 vehicle/camptothecin viability 0.604; viability with camptothecin 20.
Against ADAM11 (ADAM metallopeptidase domain 11) #3, the entry reads log2 vehicle/camptothecin viability -0.159; viability with camptothecin 58.6.
Depletion of NMT2 (N-myristoyltransferase 2) #1 gave: log2 vehicle/camptothecin viability -0.472; viability with camptothecin 93.1.
For NMT2 (N-myristoyltransferase 2) #2, the entry reads log2 vehicle/camptothecin viability -0.099; viability with camptothecin 118.
For NMT2 (N-myristoyltransferase 2) #3, the values are log2 vehicle/camptothecin viability 0.447; viability with camptothecin 41.8.
Silencing of NMT2 (N-myristoyltransferase 2) #4 resulted in: log2 vehicle/camptothecin viability 0.0779; viability with camptothecin 89.2.
